## Library screen at single concentrations

Sequences of proteins named here, by UniProt entry; tags and fusion partners are left off. Residues count along the entry.
UniProt Q4DA54, 1-478: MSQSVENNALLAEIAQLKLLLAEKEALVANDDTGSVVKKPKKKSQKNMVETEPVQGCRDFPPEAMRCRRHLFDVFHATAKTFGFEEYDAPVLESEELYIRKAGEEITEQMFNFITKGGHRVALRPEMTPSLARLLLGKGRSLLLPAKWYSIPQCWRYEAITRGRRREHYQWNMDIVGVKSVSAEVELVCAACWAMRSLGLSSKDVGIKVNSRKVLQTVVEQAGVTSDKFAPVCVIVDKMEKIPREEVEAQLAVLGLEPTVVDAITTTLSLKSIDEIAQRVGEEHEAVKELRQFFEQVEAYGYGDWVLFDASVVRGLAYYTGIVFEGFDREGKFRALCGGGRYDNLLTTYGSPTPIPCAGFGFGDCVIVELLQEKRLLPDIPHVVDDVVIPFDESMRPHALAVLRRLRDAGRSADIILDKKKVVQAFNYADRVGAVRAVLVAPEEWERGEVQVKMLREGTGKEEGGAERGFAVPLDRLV
UniProt Q8IDJ8, 1-583: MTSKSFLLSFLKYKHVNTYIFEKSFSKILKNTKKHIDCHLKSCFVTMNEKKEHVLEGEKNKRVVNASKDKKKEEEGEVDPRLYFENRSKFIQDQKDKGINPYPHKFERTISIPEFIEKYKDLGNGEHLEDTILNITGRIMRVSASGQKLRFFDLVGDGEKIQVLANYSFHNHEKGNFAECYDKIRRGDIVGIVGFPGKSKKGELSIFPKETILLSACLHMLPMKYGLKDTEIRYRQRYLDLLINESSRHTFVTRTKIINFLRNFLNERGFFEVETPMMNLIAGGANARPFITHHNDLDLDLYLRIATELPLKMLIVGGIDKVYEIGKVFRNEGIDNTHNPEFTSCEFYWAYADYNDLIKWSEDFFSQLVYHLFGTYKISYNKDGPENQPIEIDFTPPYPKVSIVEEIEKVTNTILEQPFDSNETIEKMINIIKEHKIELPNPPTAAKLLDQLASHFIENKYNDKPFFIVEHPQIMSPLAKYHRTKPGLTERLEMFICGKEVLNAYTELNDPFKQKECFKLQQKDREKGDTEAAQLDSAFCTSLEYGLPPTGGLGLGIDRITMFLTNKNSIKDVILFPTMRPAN

Source: ChEMBL document CHEMBL3988442, “University of Dundee, Small-Polar-MMV Screening Library” (2021).

The filed quantity is “Percent Effect” (%). The controls that fix the scale are not given in the record; negative values are as filed. Compounds were drawn at random from those tested, without regard to their results.

TcHisRS: 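Enzyme assay of histidyl-tRNA synthetase; the read-out is not stated. Target: Histidine-tRNA ligase, Trypanosoma cruzi CL Brener (UniProt Q4DA54). Tested at 30 µM. Direction is inferred from retests: higher values go with stronger inhibition. Of about 69,000 compounds tested this way, about 31 (0.045%) reached 50% or more in at least one test.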
PfKRS1: 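Lysine-tRNA ligase, Plasmodium falciparum 3D7 (UniProt Q8IDJ8). Enzyme assay of the cytosolic lysyl-tRNA synthetase in 384-well plates, read by luminescence. Concentration: 30 µM. Higher reads as stronger inhibition, judged from the few compounds that gave an IC50. About 69,000 compounds were tested under these conditions; 0.071% (about 49) showed 50% or more at least once.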

{"compound": "Cc1ccc2c(c1)C(=O)NCC1(CCN(C(=O)c3ccccn3)CC1)O2", "TcHisRS": 5.243, "PfKRS1": 1.544}
{"compound": "Cc1cc(C(=O)Nc2ccc(OC3CCOCC3)c(C)c2)[nH]n1", "TcHisRS": 2.703, "PfKRS1": 1.137}
{"compound": "CCCC(=O)N(C)c1cc(C#N)c2ccccc2n1", "TcHisRS": 9.845, "PfKRS1": 11.72}
{"compound": "CN1CCOC(C(=O)N2CCOC3(CCCC3)C2)C1", "stereo": "centres undefined", "TcHisRS": 2.674, "PfKRS1": 2.498}
{"compound": "COc1cccc(C2(CNC(C)c3nnc(C)o3)CCCC2)c1", "stereo": "centres undefined", "TcHisRS": 1.026, "PfKRS1": 5.106}
{"compound": "Cc1nc(C2CCCN(C(=O)c3cnn(C4CCCCC4)c3)C2)no1", "stereo": "centres undefined", "TcHisRS": 1.994, "PfKRS1": -1.152}
{"compound": "CN(C)C(=O)Cn1cc(C(=O)N2CCCc3cccc(F)c32)nn1", "TcHisRS": 5, "PfKRS1": 0.806}
{"compound": "Cc1ccc2c(ccn2CCC(=O)N2CCC(C(N)=O)CC2)c1", "TcHisRS": -3.825, "PfKRS1": 2.017}
{"compound": "O=C(NCc1ccc2[nH]c(=O)[nH]c2c1)c1ccc(CN2CCCC2)o1", "TcHisRS": 1.932, "PfKRS1": 3.568}
{"compound": "CC(C)Cc1ncc2c(n1)CN(C(=O)Cn1c(=O)oc3ccccc31)C2", "TcHisRS": 6.358, "PfKRS1": 1.895}
{"compound": "Cn1cc(N2CC3(CCN(CC4CCC4)CC3)OCC2=O)cn1", "TcHisRS": 6.098, "PfKRS1": 0.7386}
{"compound": "OC(CNCCn1cccn1)COc1cccc(C(F)(F)F)c1", "stereo": "centres undefined", "TcHisRS": 10, "PfKRS1": 2.955}
{"compound": "Cc1nsc(C(=O)NCCc2ccccc2)n1", "TcHisRS": 2.646, "PfKRS1": 2.926}
{"compound": "CN(C)CCN(CC1CCCO1)S(=O)(=O)NCc1ccccc1", "stereo": "centres undefined", "TcHisRS": -12, "PfKRS1": 9.06}
{"compound": "CCCN1CC2(CCN(C)CC2)CC1C(=O)NCc1cc(C)nn1C", "stereo": "centres undefined", "TcHisRS": 8.163, "PfKRS1": 4.448}
{"compound": "Cn1cncc1-c1nnc([C@H]2CCN(Cc3ccc(F)c(F)c3)C2)o1", "TcHisRS": 1.493, "PfKRS1": 2.898}
{"compound": "Cc1nn(-c2ccccn2)c(C)c1[C@@H]1C=C[C@@H](NC(=O)CCC(=O)O)C1", "TcHisRS": 4.95, "PfKRS1": 3.682}
{"compound": "O=C(NC1CCCN(c2ccc(OC(F)F)cc2)C1)c1ccon1", "stereo": "centres undefined", "TcHisRS": 6.494, "PfKRS1": 2.398}
{"compound": "CC(C)(C)C(=O)NCCn1ccc(-c2ccccn2)n1", "TcHisRS": 2, "PfKRS1": 3.14}
{"compound": "O=C(N1CCOCC1)N1C[C@H]2CN(Cc3nccs3)C[C@H]2C1", "TcHisRS": 10.92, "PfKRS1": 7.142}
{"compound": "CCc1c(C)n(C)c2nc3ccccc3n2c1=O", "TcHisRS": 1.031, "PfKRS1": 1.015}
{"compound": "Cc1nc(C)n(CC2CCCN(c3ncnc4ccsc34)C2)n1", "stereo": "centres undefined", "TcHisRS": 2.256, "PfKRS1": 3.66}
{"compound": "Cc1cccc(CN2CCN3C[C@H](Oc4cccnc4)C[C@H]3C2)n1", "TcHisRS": 8.824, "PfKRS1": 4.538}
{"compound": "N#CCc1ccc(NC(=O)CNc2ccc(Br)cc2F)cc1", "TcHisRS": -1.667, "PfKRS1": 2.653}
{"compound": "CC(NC(=O)C1CC1)C(=O)N(C)Cc1ccsc1", "stereo": "centres undefined", "TcHisRS": -3.867, "PfKRS1": 0.8722}
{"compound": "CN(C)Cc1nc(C(C)(C)NC(=O)c2ccc3ccccc3c2)no1", "TcHisRS": 0.5952, "PfKRS1": 2.992}
{"compound": "O=C1N(c2ccsc2)CCC12CCCN(Cc1ccccn1)C2", "stereo": "centres undefined", "TcHisRS": 4.902, "PfKRS1": 9.657}
{"compound": "CC(NCc1cc2cc(F)ccc2o1)c1nnc2n1CCCC2", "stereo": "centres undefined", "TcHisRS": -1.087, "PfKRS1": 0.7333}
{"compound": "CCN(CC)c1ccc2ccc(C(=O)N3CCCCO3)cn12", "TcHisRS": 17.65, "PfKRS1": -1.429}
{"compound": "Cc1ccc(CN2CCN(C(=O)c3ccc(CO)cc3)C(C)C2=O)cc1", "stereo": "centres undefined", "TcHisRS": 1.026, "PfKRS1": 3.068}
{"compound": "N#CCCN(C(=O)CCc1cccnc1)c1ccc2c(c1)OCCO2", "TcHisRS": 7.921, "PfKRS1": 0.2689}
{"compound": "CCN1CCC(CC(=O)NCc2nc(C)cc(C)n2)CC1", "TcHisRS": 4.348, "PfKRS1": 6.236}
{"compound": "c1cnc(N2C[C@H]3CCN(c4cccnc4)C[C@H]3C2)nc1", "TcHisRS": 2.674, "PfKRS1": 9.237}
{"compound": "CN1CCN(c2cc(CNC(=O)c3ccc(=O)[nH]n3)ccn2)CC1", "TcHisRS": 0.7634, "PfKRS1": 4.032}
{"compound": "CN1N=C(C(=O)N(Cc2ccco2)C2CC2)CCC1=O", "TcHisRS": 1.087, "PfKRS1": 1.776}
{"compound": "CN(C)c1ccccc1C(=O)N1C[C@@H](CN2CCCCC2)[C@@H](CO)C1", "TcHisRS": 1.653, "PfKRS1": 2.588}
{"compound": "NCC1Cc2cc(-c3nccc(N4CCC(O)CC4)n3)cc(F)c2O1", "stereo": "centres undefined", "TcHisRS": 33.67, "PfKRS1": 4.246}

Repeated from the top, 4 entries:

- Cc1ccc2c(c1)C(=O)NCC1(CCN(C(=O)c3ccccn3)CC1)O2 : TcHisRS: 5.243%; PfKRS1: 1.544%
- Cc1cc(C(=O)Nc2ccc(OC3CCOCC3)c(C)c2)[nH]n1 : TcHisRS: 2.703%; PfKRS1: 1.137%
- CCCC(=O)N(C)c1cc(C#N)c2ccccc2n1 : TcHisRS: 9.845%; PfKRS1: 11.72%
- CN1CCOC(C(=O)N2CCOC3(CCCC3)C2)C1 (centres undefined) : TcHisRS: 2.674%; PfKRS1: 2.498%